Some entries share one result that the patent states for a list of compounds. At least one compound was matched to its structure with a doubt left.
Test system: helicobacter pylori
Assay: MIC using medium with 7% horse's defiber blood instead of 0.1% cyclodextrin
Format: cell-based

Structure (SMILES)	MIC [g/ml]
Cl.N=C(N)NC[C@H]1CC[C@H](C(=O)Oc2ccc(-c3ccc(Br)cc3)cc2)CC1 [Example 4, trans-4-guanidinomethyl cyclohexane carboxylic acid [4-(4-bromophenyl)phenylester].hydrochloride]	> 25
Cl.N=C(N)NC[C@H]1CC[C@H](C(=O)Oc2ccc(-c3ccccc3)cc2)CC1 [Compound 1, trans-4-guanidinomethyl cyclohexane carboxylic acid (4-phenylphenylester)hydrochloride, reference compound]	> 25
